Reference: PMC10508264, “Exploring the antioxidant, antimicrobial, cytotoxic and biothermodynamic properties of novel morpholine derivative bioactive Mn(II), Co(II) and Ni(II) complexes – combined experimental and theoretical measurements towards DNA/BSA/SARS-CoV-2 3CL^Pro” (RSC Medicinal Chemistry, 2023)

Columns and labels:
MCF-7 = assay: MTT cell viability assay, MCF-7; assay type: cell-based, human; conditions: NHDF vs MCF-7
CT-DNA [1] = assay: DNA thermal denaturation / biothermodynamic properties; assay type: binding
A549 = assay: MTT cell viability assay, A549; assay type: cell-based, human; conditions: NHDF vs A549
CT-DNA [2] = assay: DNA binding by cyclic voltammetry; conditions: for Shift of formal electrode potential, bound vs free: M^1+/M^2+ couple; for Ratio of binding constants K^1+/K^2+ (K[red]/K[oxi]), found (I): method I, head is a drawing; for S (bp), binding site size: method II; for Do (diffusion coefficient), bound / E° (or E1/2), bound / Peak current ratio (Ipa/Ipc; head is a drawing), bound / ΔEP, bound: with DNA; for Do (diffusion coefficient), free / E° (or E1/2), free / Peak current ratio (Ipa/Ipc; head is a drawing), free / ΔEP, free: without DNA; for ΔEP, free: scan rate 100 mV s^−1
Protocol: The changes in peak current as well as peak potential were monitored while concentrations of CT-DNA were increased (0–10 μM) in each sample solution.[13,36]
The CV approach is one of the most important methods for evaluating the binding mechanism of a DNA–complex adduct. The CV properties of all test samples in the presence and absence of DNA were executed at a scan rate (v) of 0.1 V s^−1 with a potential range of +2 to −2 in a Tris–HCl (5 mM)/NaCl (50 mM) (pH = 7.2) solution. The M^1+/M^2+ redox couple is caused by complexes that reveal a single anodic and cathodic peak. […] (Fig. S31 ^† and Table 6).
ΔEP is peak-to-peak separation = (EPa − EPc); E° (or E1/2) denotes the formal electrode potential = 1/2(EPa + EPc); [drawing 41] [drawing 42] and [drawing 43] represent the formal electrode potential of the M^1+/M^2+ couple in the bound and free forms, respectively. [drawing 44] = +19 mV (HL), +18 mV (1), +16 mV (2), +16 mV (3). Ipa is anodic peak current, Ipc is cathodic peak current. K^1+ is the binding constant of the reduction process, K^2+ is the binding constant of the oxidation process. S represents the binding site size of base pairs (bp) with a molecule of complex, scan rate is 100 mV s^−1, binding constant (Kb) values observed from the linear plots of log(1/[DNA]) versus log(I/I0 − I) for oxidation and reduction, (I0 − IDNA)/IDNA = Cp/Cfversus [DNA] and I^2p versus(I^2po − I^2p)/[DNA] by methods I, II and III, respectively.
While the substances often bind to DNA through intercalation, the peak potential shifts in a positive direction. When the compounds bind to DNA through minor or major grooves or electrostatic attractions, the peak potential shifts occur in a negative direction. It was observed that the consistent movement of peak potential shifts in the positive direction during increments of DNA with test substances. The binding mode in compound–DNA adducts has been described as primarily intercalation (Fig. S31 ^†), and it is also attributed to the presence of 2,2′-bipyridine and morpholine fused aromatic planar systems in mixed ligand complexes, which can create inclusion through intercalation due to hydrophobic and π–π stacking interactions in the DNA base pairs. It is also supported by the evaluated outcomes from UV-vis spectral, emission titration, viscometric, and biothermodynamic properties. Furthermore, the observed values of Kb, S, and the ratio of binding constants (K^1+/K^2+) for M^1+/M^2+ couple systems further confirmed the binding affinity via intercalation. Also, the subsequent eqn (24)–(35) are applied to determine the above parameters.[88,89]Eqn (24) is acquired from modification of the Stern–Volmer eqn (14) (Table 6). The Kb values for all samples were estimated from the linear regression plot of log(1/[DNA]) versus log(I/I0 − I) by method I (Fig. S32 ^† and Table 6). Eqn (26) was obtained from revision of eqn (25). Also, binding site size (S, bp) and Kb are estimated from eqn (30) from the linear regression plot of (Cp/Cf) versus [DNA] by method-II[90–92] (Fig. S33 ^† and Table 6). In addition, base-pair sites with a molecule of the compound are referred to as “binding site size” (S), and the evaluated S values were found in the range from 0.1718 to 0.4599 bp. […] In the Nernst eqn (31) and (32) for the galvanic cell, [drawing 58] , the formal electrode potentials of the M^1+/M^2+ couple in their bound and free forms are E1/2 or [drawing 59] and [drawing 60] , respectively. As a result of the variable binding state [M^1+/M^2+] and the delayed mass transfer of test compounds that interacted with DNA fragments, the addition of DNA to the compound solution enabled a change in the redox potential to a higher positive direction and a drop in both anodic and cathodic peak currents. In particular, the equilibrium of M^1+/M^2+ is influenced by electrostatic or hydrophobic interactions.

HepG2 = assay: MTT cell viability assay, HepG2; assay type: cell-based, human; conditions: NHDF vs HepG2

SMILES | SI (IC50 normal cells/IC50 cancer cells) (MCF-7) | ΔG° (CT-DNA [1]; 10 °C (283 K)) | ΔH° (CT-DNA [1]; 10–40 °C (283–313 K)) | ΔS° (CT-DNA [1]; 10–40 °C (283–313 K)) | ΔG° (CT-DNA [1]; 25 °C (298 K)) | ΔG° (CT-DNA [1]; 40 °C (313 K)) | ΔG° (CT-DNA [1]; at Tm) | ΔH° (CT-DNA [1]; at Tm) | ΔS° (CT-DNA [1]; at Tm) | SI (IC50 normal cells/IC50 cancer cells) (A549) | Shift of formal electrode potential, bound vs free (CT-DNA [2]) | Ratio of binding constants K^1+/K^2+ (K[red]/K[oxi]), found (I) (CT-DNA [2]) | S (bp), binding site size (CT-DNA [2]) | Do (diffusion coefficient), bound (CT-DNA [2]) | E° (or E1/2), bound (CT-DNA [2]) | Peak current ratio (Ipa/Ipc; head is a drawing), bound (CT-DNA [2]) | ΔEP, bound (CT-DNA [2]) | E° (or E1/2), free (CT-DNA [2]) | Peak current ratio (Ipa/Ipc; head is a drawing), free (CT-DNA [2]) | ΔEP, free (CT-DNA [2]) | other results
[Mn+2].[O-]c1ccccc1N=Cc1ccc(N2CCOCC2)cc1.[O-]c1ccccc1N=Cc1ccc(N2CCOCC2)cc1.c1ccc(-c2ccccn2)nc1 [(1)] | 2.09 | -6.2919 kcal/mol | -3.3331 kcal/mol | -0.0061793 kcal/mol | -5.8081 kcal/mol | -5.5682 kcal/mol | -5.3376 kcal/mol | -8.5588 kcal/mol | -0.0092304 kcal/mol | 2.03 | +18 mV | 0.7874 | 0.287 bp | 3.1295 × 10^−5 cm^2 s^−1 | 0.7310 V | 0.4800 | 0.1477 V | 0.7126 V | 0.6194 | 0.3801 V | Do (diffusion coefficient), free (CT-DNA [2]): 3.1445 × 10^−5 cm^2 s^−1; SI (IC50 normal cells/IC50 cancer cells) (HepG2): 2.13
[Co+2].[O-]c1ccccc1N=Cc1ccc(N2CCOCC2)cc1.[O-]c1ccccc1N=Cc1ccc(N2CCOCC2)cc1.c1ccc(-c2ccccn2)nc1 [(2)] | 2.06 | -6.4673 kcal/mol | -3.7445 kcal/mol | -0.0074978 kcal/mol | -5.8277 kcal/mol | -5.593 kcal/mol | -5.4118 kcal/mol | -8.1656 kcal/mol | -0.0078457 kcal/mol | 2.16 | +16 mV | 0.7973 | 0.125 bp | 4.0684 × 10^−5 cm^2 s^−1 | 0.8177 V | 0.4073 | 0.1553 V | 0.8015 V | 0.6307 | 0.2790 V | Do (diffusion coefficient), free (CT-DNA [2]): 4.1374 × 10^−5 cm^2 s^−1; SI (IC50 normal cells/IC50 cancer cells) (HepG2): 2.06
[Ni+2].[O-]c1ccccc1N=Cc1ccc(N2CCOCC2)cc1.[O-]c1ccccc1N=Cc1ccc(N2CCOCC2)cc1.c1ccc(-c2ccccn2)nc1 [(3)] | 2.13 | -6.4218 kcal/mol | -3.6540 kcal/mol | -0.007216 kcal/mol | -5.8085 kcal/mol | -5.5798 kcal/mol | -5.3633 kcal/mol | -8.3598 kcal/mol | -0.0085613 kcal/mol | 2.20 | +16 mV | 0.8003 | 0.382 bp | 3.1983 × 10^−5 cm^2 s^−1 | 0.7688 V | 0.2189 | 0.1375 V | 0.7528 V | 1.8405 | 0.2686 V | Do (diffusion coefficient), free (CT-DNA [2]): 3.7063 × 10^−5 cm^2 s^−1; SI (IC50 normal cells/IC50 cancer cells) (HepG2): 2.19
Oc1ccccc1N=Cc1ccc(N2CCOCC2)cc1 [(HL), 2-(4-morpholinobenzylideneamino)phenol] | 1.98 | -6.1124 kcal/mol | -3.2141 kcal/mol | -0.0059041 kcal/mol | -5.7004 kcal/mol | -5.4174 kcal/mol | -5.0249 kcal/mol | -9.8084 kcal/mol | -0.0137852 kcal/mol | 1.65 | +19 mV | 0.7214 | 0.452 bp | 2.5809 × 10^−5 cm^2 s^−1 | 0.3680 V | 1.3424 | 0.8890 V | 0.3490 V | 1.4295 | 0.7420 V | SI (IC50 normal cells/IC50 cancer cells) (HepG2): 1.92
